The values below come from patent publication US20240368289A1 (LAEKNA THERAPEUTICS SHANGHAI, published 2024).

Results are given in words; binding and its absence hold for the method and conditions named. Some entries that bind do so weakly or less than the wild type.

Experiment [1] has as its target ACVR2A mouse Fc fusion protein (mouse). Put plainly: Activin A competitive ELISA: ACVR2A mouse Fc fusion coated, Fab titrated, then 16.7 nM Activin A added; bound Activin A detected (luminescence).
The target is the same in experiment [2]. The experiment can be described thus: Activin A competitive ELISA: ACVR2A mouse Fc fusion coated, IgG titrated, then 16.7 nM Activin A added; bound Activin A detected (luminescence).

B1: clone J (Fab) (Fab, V domains shown)
VH: QVQLVQSGAEVKKPGSSVKVSCKASGPRFQDLSISWVRQAPGQGLEWMGGIIPIYGTANYAQKFQGRVTITADESTSTAYMELSSLRSEDTAVYYCVKDLTWTNLGLDIWGQGTMVTVSS
VL: EIVMTQSPSSLSASVGDTVTITCRASQGVSRWLAWYQQKPGKAPRLLIYAASSLHSGVPSRFSGSGSGTHFTLTISSLQPEDFATYFCQQSYSTPFTFGPGTKLEIK
Take B1: in experiment [1], the binding result is recorded as “binds”.

B2: L2-Fab-21335 (Fab, V domains shown)
VH: QVQLVQSGAEVKKPGSSVKVSCKASGESFEHFQISWVRQAPGQGLEWMGGIIPIYGTANYAQKFQGRVTITADESTSTAYMELSSLRSEDTAVYYCVKDLTWTNLGLDIWGQGTMVTVSS
VL: EIVMTQSPSSLSASVGDTVTITCRASQGVSRWLAWYQQKPGKAPRLLIYQASRLLSGVPSRFSGSGSGTHFTLTISSLQPEDFATYFCQQSYSTPFTFGPGTKLEIK
In the case of B2, the binding entry in experiment [1] is “binds”.

B3: L2-Fab-21302 (Fab, V domains shown)
VH: QVQLVQSGAEVKKPGSSVKVSCKASGESFEHFQISWVRQAPGQGLEWMGGIIPIYGTANYAQKFQGRVTITADESTSTAYMELSSLRSEDTAVYYCVKDLTWTNLGLDIWGQGTMVTVSS
VL: EIVMTQSPSSLSASVGDTVTITCRASQGVSRWLAWYQQKPGKAPRLLIYAARRLHSGVPSRFSGSGSGTHFTLTISSLQPEDFATYFCQQSYSTPFTFGPGTKLEIK
As to B3, the binding entry in experiment [1] is given as “binds”.

B4: L2-Fab-21385 (Fab, V domains shown)
VH: QVQLVQSGAEVKKPGSSVKVSCKASGRHFGSLQISWVRQAPGQGLEWMGGIIPIYGTANYAQKFQGRVTITADESTSTAYMELSSLRSEDTAVYYCVKDLTWTNLGLDIWGQGTMVTVSS
VL: EIVMTQSPSSLSASVGDTVTITCRASQGVSRWLAWYQQKPGKAPRLLIYGANMLRSGVPSRFSGSGSGTHFTLTISSLQPEDFATYFCQQSYSTPFTFGPGTKLEIK
With B4, in experiment [1], the binding entry was “binds”.

B5: L2-Fab-21343 (Fab, V domains shown)
VH: QVQLVQSGAEVKKPGSSVKVSCKASGPRFQDLSISWVRQAPGQGLEWMGGIIPIYGTANYAQKFQGRVTITADESTSTAYMELSSLRSEDTAVYYCVKDLTWTNLGLDIWGQGTMVTVSS
VL: EIVMTQSPSSLSASVGDTVTITCRASQGVSRWLAWYQQKPGKAPRLLIYNARSLFSGVPSRFSGSGSGTHFTLTISSLQPEDFATYFCQQSYSTPFTFGPGTKLEIK
With B5, the binding entry in experiment [1] is “binds”.

B6: L2-Fab-21178 (Fab, V domains shown)
VH: QVQLVQSGAEVKKPGSSVKVSCKASGRHFGSLQISWVRQAPGQGLEWMGGIIPIYGTANYAQKFQGRVTITADESTSTAYMELSSLRSEDTAVYYCVKDLTWTNLGLDIWGQGTMVTVSS
VL: EIVMTQSPSSLSASVGDTVTITCRASQGVSRWLAWYQQKPGKAPRLLIYAAEQLLSGVPSRFSGSGSGTHFTLTISSLQPEDFATYFCQQSYSTPFTFGPGTKLEIK
With B6, the binding result in experiment [1] is listed as “binds”.

B7: L2-Fab-21046 (Fab, V domains shown)
VH: QVQLVQSGAEVKKPGSSVKVSCKASGESFEHFQISWVRQAPGQGLEWMGGIIPIYGTANYAQKFQGRVTITADESTSTAYMELSSLRSEDTAVYYCVKDLTWTNLGLDIWGQGTMVTVSS
VL: EIVMTQSPSSLSASVGDTVTITCRASQGVSRWLAWYQQKPGKAPRLLIYSARGLRSGVPSRFSGSGSGTHFTLTISSLQPEDFATYFCQQSYSTPFTFGPGTKLEIK
For the molecule B7, the binding result in experiment [1] is on record as “binds”.

B8: IgG NGS-3 (CDR shuffling) (antibody, V domains shown)
VH: QVQLVQSGAEVKKPGSSVKVSCKASGFQFRTSLISWVRQAPGQGLEWMGGLIPIFGTANYAQKFQGRVTITADESTSTAYMELSSLRSEDTAVYYCVKDLTWTNLGLDIWGQGTMVTVSS
VL: EIVMTQSPSSLSASVGDTVTITCRASQGVSRWLAWYQQKPGKAPRLLIYSVASSLHGVPSRFSGSGSGTHFTLTISSLQPEDFATYFCQQSYSTPFTFGPGTKLEIK
Consider B8, for which the binding entry in experiment [2] is on record as “binds”.

B9: IgG 3351 (CDR shuffling) (antibody, V domains shown)
VH: QVQLVQSGAEVKKPGSSVKVSCKASGFQFRTSLISWVRQAPGQGLEWMGGLIPIFGTANYAQKFQGRVTITADESTSTAYMELSSLRSEDTAVYYCVKDLTWTNLGLDIWGQGTMVTVSS
VL: EIVMTQSPSSLSASVGDTVTITCRASQGPSRWLAWYQQKPGKAPRLLIYGASPLSSGVPSRFSGSGSGTHFTLTISSLQPEDFATYFCQQSYSTPFTFGPGTKLEIK
For B9, the binding entry in experiment [2] is “binds”.

B10: 2046 (antibody, V domains shown)
VH: QVQLVQSGAEVKKPGSSVKVSCKASGPRFQDLSISWVRQAPGQGLEWMGGIIPIYGTANYAQKFQGRVTITADESTSTAYMELSSLRSEDTAVYYCVKDLTWTNLGLDIWGQGTMVTVSS
VL: EIVMTQSPSSLSASVGDTVTITCRASQGVSRWLAWYQQKPGKAPRLLIYGAGQLHSGVPSRFSGSGSGTHFTLTISSLQPEDFATYFCQQSYSTPFTFGPGTKLEIK
Take B10: the binding entry in experiment [2] and in experiment [1] was “binds” each time.

B11: L2-Fab-21366 (Fab, V domains shown)
VH: QVQLVQSGAEVKKPGSSVKVSCKASGPRFQDLSISWVRQAPGQGLEWMGGIIPIYGTANYAQKFQGRVTITADESTSTAYMELSSLRSEDTAVYYCVKDLTWTNLGLDIWGQGTMVTVSS
VL: EIVMTQSPSSLSASVGDTVTITCRASQGVSRWLAWYQQKPGKAPRLLIYWAAHLQSGVPSRFSGSGSGTHFTLTISSLQPEDFATYFCQQSYSTPFTFGPGTKLEIK
Regarding B11, in experiment [1], the binding result was “binds”.

B12: L2-Fab-21328 (Fab, V domains shown)
VH: QVQLVQSGAEVKKPGSSVKVSCKASGESFEHFQISWVRQAPGQGLEWMGGIIPIYGTANYAQKFQGRVTITADESTSTAYMELSSLRSEDTAVYYCVKDLTWTNLGLDIWGQGTMVTVSS
VL: EIVMTQSPSSLSASVGDTVTITCRASQGVSRWLAWYQQKPGKAPRLLIYGARVLPSGVPSRFSGSGSGTHFTLTISSLQPEDFATYFCQQSYSTPFTFGPGTKLEIK
B12: the binding entry in experiment [1] is reported as “binds”.

B13: 275 (Fab, V domains shown)
VH: QVQLVQSGAEVKKPGSSVKVSCKASGFQFRTSLISWVRQAPGQGLEWMGGLIPIFGTANYAQKFQGRVTITADESTSTAYMELSSLRSEDTAVYYCVKDLTWTNLGLDIWGQGTMVTVSS
VL: EIVMTQSPSSLSASVGDTVTITCRASQGPSRWLAWYQQKPGKAPRLLIYAASSLHSGVPSRFSGSGSGTHFTLTISSLQPEDFATYFCQQSYSTPFTFGPGTKLEIK
On to B13, for which the binding entry in experiment [1] is given as “binds”.

B14: L2-Fab-21155 (Fab, V domains shown)
VH: QVQLVQSGAEVKKPGSSVKVSCKASGFQFRTSLISWVRQAPGQGLEWMGGLIPIFGTANYAQKFQGRVTITADESTSTAYMELSSLRSEDTAVYYCVKDLTWTNLGLDIWGQGTMVTVSS
VL: EIVMTQSPSSLSASVGDTVTITCRASQGVSRWLAWYQQKPGKAPRLLIYGASPLSSGVPSRFSGSGSGTHFTLTISSLQPEDFATYFCQQSYSTPFTFGPGTKLEIK
Take B14: the binding result in experiment [1] was “binds”.

B15: L2-Fab-21047 (Fab, V domains shown)
VH: QVQLVQSGAEVKKPGSSVKVSCKASGFQFRTSLISWVRQAPGQGLEWMGGLIPIFGTANYAQKFQGRVTITADESTSTAYMELSSLRSEDTAVYYCVKDLTWTNLGLDIWGQGTMVTVSS
VL: EIVMTQSPSSLSASVGDTVTITCRASQGVSRWLAWYQQKPGKAPRLLIYRAKSLMSGVPSRFSGSGSGTHFTLTISSLQPEDFATYFCQQSYSTPFTFGPGTKLEIK
B15: the binding entry in experiment [1] was “binds”.

B16: L2-Fab-21169 (Fab, V domains shown)
VH: QVQLVQSGAEVKKPGSSVKVSCKASGFQFRTSLISWVRQAPGQGLEWMGGLIPIFGTANYAQKFQGRVTITADESTSTAYMELSSLRSEDTAVYYCVKDLTWTNLGLDIWGQGTMVTVSS
VL: EIVMTQSPSSLSASVGDTVTITCRASQGVSRWLAWYQQKPGKAPRLLIYAAQGLSSGVPSRFSGSGSGTHFTLTISSLQPEDFATYFCQQSYSTPFTFGPGTKLEIK
B16: the binding result in experiment [1] is listed as “binds”.

B17: IgG 3353 (CDR shuffling) (antibody, V domains shown)
VH: QVQLVQSGAEVKKPGSSVKVSCKASGFQFRTSLISWVRQAPGQGLEWMGGLIPIFGTANYAQKFQGRVTITADESTSTAYMELSSLRSEDTAVYYCVKDLTWTNLGLDIWGQGTMVTVSS
VL: EIVMTQSPSSLSASVGDTVTITCRASQSIGRWLAWYQQKPGKAPRLLIYAASSLHSGVPSRFSGSGSGTHFTLTISSLQPEDFATYFCQESYSNPYTFGPGTKLEIK
Consider B17, for which the binding entry in experiment [2] is recorded as “binds”.

B18: IgG NGS-5 (CDR shuffling) (antibody, V domains shown)
VH: QVQLVQSGAEVKKPGSSVKVSCKASGFQFRTSLISWVRQAPGQGLEWMGGLIPIFGTANYAQKFQGRVTITADESTSTAYMELSSLRSEDTAVYYCVKDLTWTNLGLDIWGQGTMVTVSS
VL: EIVMTQSPSSLSASVGDTVTITCRASQGVSRWLAWYQQKPGKAPRLLIYSAASVCTGVPSRFSGSGSGTHFTLTISSLQPEDFATYFCQQSYSTPFTFGPGTKLEIK
With B18, the binding result in experiment [2] is recorded as “binds”.

B19: hit 21047 (IgG) (antibody, V domains shown)
VH: QVQLVQSGAEVKKPGSSVKVSCKASGFQFRTSLISWVRQAPGQGLEWMGGLIPIFGTANYAQKFQGRVTITADESTSTAYMELSSLRSEDTAVYYCVKDLTWTNLGLDIWGQGTMVTVSS
VL: EIVMTQSPSSLSASVGDTVTITCRASQGVSRWLAWYQQKPGKAPRLLIYRAKSLMSGVPSRFSGSGSGTHFTLTISSLQPEDFATYFCQQSYSTPFTFGPGTKLEIK
Take B19: the binding entry in experiment [2] is recorded as “binds”.

B20: L2-Fab-21341 (Fab, V domains shown)
VH: QVQLVQSGAEVKKPGSSVKVSCKASGPRFQDLSISWVRQAPGQGLEWMGGIIPIYGTANYAQKFQGRVTITADESTSTAYMELSSLRSEDTAVYYCVKDLTWTNLGLDIWGQGTMVTVSS
VL: EIVMTQSPSSLSASVGDTVTITCRASQGVSRWLAWYQQKPGKAPRLLIYSARALHSGVPSRFSGSGSGTHFTLTISSLQPEDFATYFCQQSYSTPFTFGPGTKLEIK
B20: the binding entry in experiment [1] is recorded as “binds”.

B21: 327 (Fab, V domains shown)
VH: QVQLVQSGAEVKKPGSSVKVSCKASGFQFRTSLISWVRQAPGQGLEWMGGLIPIFGTANYAQKFQGRVTITADESTSTAYMELSSLRSEDTAVYYCVKDLTWTNLGLDIWGQGTMVTVSS
VL: EIVMTQSPSSLSASVGDTVTITCRASQQQSTFLTWYQQKPGKAPRLLIYAASSLHSGVPSRFSGSGSGTHFTLTISSLQPEDFATYFCQQSYSTPFTFGPGTKLEIK
Regarding B21, in experiment [1], the binding entry is “binds”.
